Experimental data published in publication doi:10.1101/2020.01.24.918722.
No constants are given. Whether binding was seen depends on the method and setting. For some of these results: Binding seen in cells or lysates may run through a third protein. Some results given as binding are weak or reduced against the parent protein; the word gives no strength. For some of these results: Where a sequence is shown, tags or fusion partners need not be part of it.

The chains behind the UniProt entries cited, without tags or fusion partners. Where a name states a change or a piece, a line headed by the entry shows the natural chain unless it says otherwise. Residues count along the entry.
UniProt Q62888, 15-678: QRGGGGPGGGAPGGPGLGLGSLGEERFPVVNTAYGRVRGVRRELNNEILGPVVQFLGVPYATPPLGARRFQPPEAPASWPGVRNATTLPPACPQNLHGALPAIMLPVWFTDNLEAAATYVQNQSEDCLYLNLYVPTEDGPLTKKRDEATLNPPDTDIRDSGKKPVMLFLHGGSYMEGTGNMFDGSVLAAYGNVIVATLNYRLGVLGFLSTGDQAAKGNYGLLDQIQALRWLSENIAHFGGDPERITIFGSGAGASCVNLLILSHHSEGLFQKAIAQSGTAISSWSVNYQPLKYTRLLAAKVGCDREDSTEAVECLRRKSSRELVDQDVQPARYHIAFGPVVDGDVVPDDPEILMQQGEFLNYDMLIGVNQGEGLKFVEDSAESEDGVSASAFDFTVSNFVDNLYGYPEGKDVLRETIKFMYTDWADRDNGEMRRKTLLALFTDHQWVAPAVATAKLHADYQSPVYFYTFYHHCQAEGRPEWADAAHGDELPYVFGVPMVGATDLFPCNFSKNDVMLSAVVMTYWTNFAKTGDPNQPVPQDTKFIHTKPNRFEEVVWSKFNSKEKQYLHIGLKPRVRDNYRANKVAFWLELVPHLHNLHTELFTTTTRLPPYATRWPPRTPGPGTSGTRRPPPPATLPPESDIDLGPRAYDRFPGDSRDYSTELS

T1: His-HA-Clstn3 ΔCad (extracellular, without the cadherin domains) (mouse) (UniProt Q99JH7)
T1 sequence: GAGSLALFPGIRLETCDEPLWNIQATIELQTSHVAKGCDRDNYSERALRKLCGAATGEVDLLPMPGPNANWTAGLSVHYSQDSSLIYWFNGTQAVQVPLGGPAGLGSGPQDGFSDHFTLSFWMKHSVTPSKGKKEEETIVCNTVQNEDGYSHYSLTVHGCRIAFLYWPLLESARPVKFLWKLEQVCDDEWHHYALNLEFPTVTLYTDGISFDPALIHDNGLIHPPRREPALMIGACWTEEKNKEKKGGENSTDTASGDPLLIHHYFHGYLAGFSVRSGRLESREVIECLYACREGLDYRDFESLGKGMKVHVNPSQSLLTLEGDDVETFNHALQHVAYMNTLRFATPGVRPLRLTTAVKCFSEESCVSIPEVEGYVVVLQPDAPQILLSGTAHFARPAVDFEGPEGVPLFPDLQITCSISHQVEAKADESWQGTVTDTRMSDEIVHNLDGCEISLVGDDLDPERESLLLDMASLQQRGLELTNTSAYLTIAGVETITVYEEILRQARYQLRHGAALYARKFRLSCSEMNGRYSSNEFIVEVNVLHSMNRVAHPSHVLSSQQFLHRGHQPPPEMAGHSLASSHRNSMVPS

B1: FLAG-Clstn3 Full (full-length Clstn3) (protein, UniProt Q99JH7 20-956)
chain: NKANKHKPWIEAEYQGIVMENDNTVLLNPPLFALDKDAPLRYAGEICGFRLHGSGVPFEAVILDKATGEGLIRAKEPVDCEAQKEHTFTIQAYDCGEGPDGTNTKKSHKATVHVRVNDVNEFAPVFVERLYRAAVTEGKLYDRILRVEAIDGDCSPQYSQICYYEILTPNTPFLIDNDGNIENTEKLQYSGEKLYKFTVTAYDCGKKRAADDAEVEIQVKPTCKPSWQGWNKRIEYAPGAGSLALFPGIRLETCDEPLWNIQATIELQTSHVAKGCDRDNYSERALRKLCGAATGEVDLLPMPGPNANWTAGLSVHYSQDSSLIYWFNGTQAVQVPLGGPAGLGSGPQDGFSDHFTLSFWMKHSVTPSKGKKEEETIVCNTVQNEDGYSHYSLTVHGCRIAFLYWPLLESARPVKFLWKLEQVCDDEWHHYALNLEFPTVTLYTDGISFDPALIHDNGLIHPPRREPALMIGACWTEEKNKEKKGGENSTDTASGDPLLIHHYFHGYLAGFSVRSGRLESREVIECLYACREGLDYRDFESLGKGMKVHVNPSQSLLTLEGDDVETFNHALQHVAYMNTLRFATPGVRPLRLTTAVKCFSEESCVSIPEVEGYVVVLQPDAPQILLSGTAHFARPAVDFEGPEGVPLFPDLQITCSISHQVEAKADESWQGTVTDTRMSDEIVHNLDGCEISLVGDDLDPERESLLLDMASLQQRGLELTNTSAYLTIAGVETITVYEEILRQARYQLRHGAALYARKFRLSCSEMNGRYSSNEFIVEVNVLHSMNRVAHPSHVLSSQQFLHRGHQPPPEMAGHSLASSHRNSMVPSAATLIIVVCVGFLVLMVILGLVRIHSLHRRVSGTGGPSGASTDPKDPDLFWDDSALTIIVNPMESYQNQQTCVAGVAGGQQEEEDSSDSEAADSPSSDERRIIESPPHRY
B2: FLAG-Clstn3 Cad (tandem cadherin domains, transmembrane segment and intracellular residues of Clstn3) (domain or fragment, UniProt Q99JH7 29-252; Q99JH7 848-956)
chain: IEAEYQGIVMENDNTVLLNPPLFALDKDAPLRYAGEICGFRLHGSGVPFEAVILDKATGEGLIRAKEPVDCEAQKEHTFTIQAYDCGEGPDGTNTKKSHKATVHVRVNDVNEFAPVFVERLYRAAVTEGKLYDRILRVEAIDGDCSPQYSQICYYEILTPNTPFLIDNDGNIENTEKLQYSGEKLYKFTVTAYDCGKKRAADDAEVEIQVKPTCKPSWQGWNKRATLIIVVCVGFLVLMVILGLVRIHSLHRRVSGTGGPSGASTDPKDPDLFWDDSALTIIVNPMESYQNQQTCVAGVAGGQQEEEDSSDSEAADSPSSDERRIIESPPHRY
B3: Clstn3 (calsyntenin-3), endogenous in mouse synaptosomal membrane fractions (protein, UniProt Q99JH7 20-956)
chain: B1 chain
B4: FLAG-Clstn3 ΔCad (full-length Clstn3 lacking the tandem cadherin domains) (domain or fragment, UniProt Q99JH7 258-956)
chain: GAGSLALFPGIRLETCDEPLWNIQATIELQTSHVAKGCDRDNYSERALRKLCGAATGEVDLLPMPGPNANWTAGLSVHYSQDSSLIYWFNGTQAVQVPLGGPAGLGSGPQDGFSDHFTLSFWMKHSVTPSKGKKEEETIVCNTVQNEDGYSHYSLTVHGCRIAFLYWPLLESARPVKFLWKLEQVCDDEWHHYALNLEFPTVTLYTDGISFDPALIHDNGLIHPPRREPALMIGACWTEEKNKEKKGGENSTDTASGDPLLIHHYFHGYLAGFSVRSGRLESREVIECLYACREGLDYRDFESLGKGMKVHVNPSQSLLTLEGDDVETFNHALQHVAYMNTLRFATPGVRPLRLTTAVKCFSEESCVSIPEVEGYVVVLQPDAPQILLSGTAHFARPAVDFEGPEGVPLFPDLQITCSISHQVEAKADESWQGTVTDTRMSDEIVHNLDGCEISLVGDDLDPERESLLLDMASLQQRGLELTNTSAYLTIAGVETITVYEEILRQARYQLRHGAALYARKFRLSCSEMNGRYSSNEFIVEVNVLHSMNRVAHPSHVLSSQQFLHRGHQPPPEMAGHSLASSHRNSMVPSAATLIIVVCVGFLVLMVILGLVRIHSLHRRVSGTGGPSGASTDPKDPDLFWDDSALTIIVNPMESYQNQQTCVAGVAGGQQEEEDSSDSEAADSPSSDERRIIESPPHRY

Legend:
[1] = target: mNrxn1β ΔStalk1 (FLAG-tagged, lacks the entire stalk region) (mouse) (UniProt P0DI97); assay: cell surface-binding assay
[2] = target: FLAG-mNrxn1β^+SS4 (N-terminally FLAG-tagged mouse Nrxn1β containing the SS4 insert) (mouse) (UniProt P0DI97); assay: cell surface-binding assay
[3] = target: T1, His-HA-Clstn3 ΔCad (extracellular, without the cadherin domains) (mouse); assay: pull-down
Ig-mNrxn1β^+SS4 (mouse) = Ig-mNrxn1β^+SS4 (mouse) (UniProt P0DI97); assay: pull-down

Row | Molecule | binding (Ig-mNrxn1β^+SS4 (mouse)) | further results
1 | Ig-NL-2 (Ig-fused neuroligin-2) (from UniProt Q62888 15-678) (Fc fusion) |  | binding [1]: binds; binding [2]: binds
2 | Ig-mNrxn1β^+SS4 (from UniProt P0DI97 47-389) (Fc fusion) |  | binding [3]: no binding
3 | B1 | binds | 
4 | B2 | binds | 
5 | B3 | binds | 
6 | B4 | no binding | 
